Data published in PMC5200908.

Molecular target: HA-Reck
Assay: proximity ligation; HEK293T cells 48 h after transfection with FLAG-adgra2 or FLAG-adgra2^ouchless and HA-reck, plus a Wnt7a (mouse gene) expression construct; fixed 15 min in 4% paraformaldehyde; mouse anti-FLAG M2 1:10,000 and rabbit anti-HA 1:400

B1: FLAG-Adgra2 (receptor, UniProt E7FBY6 27-1367)
chain: CPELFSSGCSCTEDRSKAHPTPGTRRKVSCGGKELTETPEVSLLPNRTVSLNLSNNRIRMLKNGSFAGLSSLEKLDLRNNLISTIMPGAFLGLTALRKLDLSSNRIGCLTPEMFQGLTNLTKLNISGNIFSSLDPNVFMELHSLKLVNFHSEFLSCDCGLRWVPSFFRSGSARLGDETLCAYPRRLQNKPLRLLRESDLSCEGPLELHTLSLLPSQRQVVFKGDRLPFHCTASLVDKITALHWRQNGQPVTSDPTKGIHLEESVQHDCTFITSELILSNVHVEASGEWECVVSTGRGNTSCSVEIVVLENSASFCPEQKVNNNRGEFRWPRTLAGITSYQHCLQLRYPSLTLGGGVEQKKASRNCDRSGRWEEADYSQCLYTNDITRILHTFILMPVNASNAVTLAHQVRSYTLEAAGFTDTVDVLYVAQMMHKFMDYVTELRELSEVLVEMGSNLMQVDDQILARAQREERACSSIVYTLETLAWPQLHSHAQDLSRYSRNIVMEAHLIRPAHFTGISCTVYQRREGAAGSQVHDGADLSLEQQLRFRCTTGTHNTSLNAFHLKNAVALATVSLPATLFPPNAPPDCKLQFVAFRNGRFFPFTSNFTGHSDLARRRGISTPVIYAGLDGCSMWNQSDPIIVSLRHTSPGHDPVAAHWNSQALGHHGSWSLDGCQLIHSDVSISTLRCSVLSNYAVLQEIPDFPGSPSIPVEVLHPVIYTCTAVLLLCLFTIIITYILHHSSIRITRKSWHTLLNTSFHVAMTSAVFAGGITLTGYPIVCQAVGIVLHYSSLSTLLWIGVSARVIYKEALLRTPQQLEGESAVQPTQRPMLRFYLIAGGVPLIICGITAAVNINNYGDNIPYCWLVWQPSFGAFYIPAGLIILVTWIYFLCTVFCLRQRNFQESKDLQCSASDPSNLPESQPALSGSTSLLSTDSGVSPVHAGTTVEDQYSLKVQCLALMATQFVFVGLWCCGAMAVWHVDRERKLFSCLYGGTATGLGIFLVLHHCFKRLDVQAAWLGCCPGYHRSQPMPAYSHPCTVTVGVQSASERGSQLFVACHPPTDPNHYSSSARSSSTQSGTASITVVPSKLTNLLQVSQDNANNASRAPAGTNTNTSTSTENNKPTNNLLPSLLPVQQPQRRKACSRTKGGNTQYHHRGDARSHYRLKALRAGGGGSMGALGPSGTEHSNIYHVHKHASSENGSLRNSHSEGQNGLLTNGRHRGEGLATSPSEGSDGGSSGSRKPFPLLPSVARRAAMQQNAQCRSASKDNLKLAAAAERESKRSSFPLNMSSNVTATASLSTVSAPNGTLKGSVVELDTSGTDQSQGSVGMKSRVWKSETTV
binding: binds

Results are given in words; binding and its absence hold for the method and conditions named. In cells and extracts the contact can be indirect. Binding can be weak; no strength is given. Where a sequence is shown, tags or fusion partners need not be part of it.
